# According to PubChem BioAssay AID504327 (National Center for Advancing Translational Sciences (NCATS), 2011):
# The chains behind the UniProt entries cited, without tags or fusion partners.
# UniProt Q92830, whole entry, looked up: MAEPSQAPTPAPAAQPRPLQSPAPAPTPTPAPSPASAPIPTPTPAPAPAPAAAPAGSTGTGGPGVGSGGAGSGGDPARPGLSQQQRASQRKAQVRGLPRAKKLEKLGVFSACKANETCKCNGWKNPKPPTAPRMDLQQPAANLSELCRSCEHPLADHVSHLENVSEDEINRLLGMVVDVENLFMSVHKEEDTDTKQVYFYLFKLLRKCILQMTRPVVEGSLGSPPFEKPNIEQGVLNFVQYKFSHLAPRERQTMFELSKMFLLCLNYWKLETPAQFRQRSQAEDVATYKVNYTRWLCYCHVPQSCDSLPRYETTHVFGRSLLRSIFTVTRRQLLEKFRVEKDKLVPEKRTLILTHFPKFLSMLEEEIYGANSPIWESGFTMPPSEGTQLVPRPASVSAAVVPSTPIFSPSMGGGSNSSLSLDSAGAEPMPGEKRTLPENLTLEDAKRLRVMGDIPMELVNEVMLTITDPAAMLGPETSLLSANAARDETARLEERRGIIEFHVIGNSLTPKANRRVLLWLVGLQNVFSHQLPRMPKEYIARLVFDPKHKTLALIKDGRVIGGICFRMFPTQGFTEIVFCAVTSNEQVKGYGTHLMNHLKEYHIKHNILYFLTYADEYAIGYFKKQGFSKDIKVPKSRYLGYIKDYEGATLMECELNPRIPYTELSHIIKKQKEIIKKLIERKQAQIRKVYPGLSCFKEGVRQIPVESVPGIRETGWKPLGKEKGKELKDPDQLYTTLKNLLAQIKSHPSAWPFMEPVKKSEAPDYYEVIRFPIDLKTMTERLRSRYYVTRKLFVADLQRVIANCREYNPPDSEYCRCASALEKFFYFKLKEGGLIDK
# Where “and” joins values, the source holds several entries; their conditions need not be identical. Identical values can stand only once. Out of some 390,000 compounds screened, about 820 (0.21%) were called active. This list was built around the results that the source calls inconclusive (neither active nor inactive); the mix of calls is not that of the screen. The call rests on the fitted dose curve; in most records, active means well fitted inhibition curve with a large enough effect; inconclusive means small, poorly fitted or top-dose-only effect, or another doubt; inactive means no such curve, though single readings can be large or run the other way. Potencies beside an inconclusive call are fits to weak or partial responses and may not hold up.
# Molecular target: Histone acetyltransferase KAT2A (Homo sapiens) (UniProt Q92830)
# Assay: qHTS Assay for Inhibitors of GCN5L2
# Conditions: GCN5L2 HAT assay, ThioGlo1 CoA-SH fluorescence; activity change, negative = inhibition: at 58.9 µM (top of the series) unless noted
# In short: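 Free CoA generated was detected with ThioGlo1 (50uM) fluorescence at Ex340nm/Em540nm, read immediately and after 20 min at room temperature. Enzyme, 20 nM in HEPES pH 7.5 buffer, saw compounds 15 min before adding 75uM H3(1-25) peptide and 70uM acetyl-CoA.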
# On the % scale 0 is the no-effect control and ±100 the full control effect; potency means the concentration at half of the fitted maximal effect.
Structure (SMILES),Potency,"activity change, negative = inhibition"
Cc1nc(Nc2ccc3c(c2)OCO3)c2oc3ccccc3c2n1,"inconclusive: 14.1 µM [inhibitor, partial curve]",
NCCc1cnc(-c2cccc(C(F)(F)F)c2)[nH]1,inactive,
Cc1c(N2C(=O)/C(=C\c3ccccc3O)SC2=S)c(=O)n(-c2ccccc2)n1C,"inconclusive: 31.6 µM [inhibitor, partial curve]",
CN(C)c1ccc([C@@H]2[C@@H]([N+](=O)[O-])[C@H]3C=Cc4ccccc4N3[C@H]2C(=O)c2ccc(Cl)cc2)cc1,inactive,
CCOC(=O)/C(C)=C1\NC(C)(C)Cc2ccccc21,"inconclusive: 25.1 µM [inhibitor, single point]",
CCC(=C/c1sc2ccc3ccccc3c2[n+]1C)/C=C1\Sc2ccc3ccccc3c2N1C,"inconclusive: 22.4 µM [inhibitor, partial curve]",
CCCCn1c(N)c(N(Cc2ccccc2OC)C(=O)CN2C(=O)NC3(CCCC3)C2=O)c(=O)[nH]c1=O,"inconclusive: 28.2 µM [inhibitor, single point]",
COc1ccc(C(=O)Nc2ccc(N3CCN(C)CC3)cc2)cc1OC,"inconclusive: 0.398 µM [inhibitor, full curve, poor fit]",
CCCCOCc1cc(CN2CCN(c3cccc(Cl)c3)CC2)c(O)c2ncccc12,active: 20 µM,
COc1ccc(-n2c(-c3ccco3)nc3c(cnn3-c3ccc(C)cc3)c2=O)cc1,"inconclusive: 39.8 µM [inhibitor, partial curve]",
COc1ccc2nccc(C(N)=O)c2c1,"inconclusive: 6.31 µM [inhibitor, single point]",
CCOc1cc(CNCc2ccccc2)ccc1OCc1ccc(Cl)cc1,"inconclusive: 0.126 µM [inhibitor, full curve, poor fit]",
CCCCNc1cc(C(=O)O)cc(S(N)(=O)=O)c1Oc1ccccc1,"inconclusive: 7.08 µM [inhibitor, partial curve, poor fit] and inconclusive: 39.8 µM [inhibitor, single point]",
COc1ccc(C(=O)C2CCCN(C(=O)CCNC(C)=O)C2)cc1OC (stereo not drawn),"inconclusive: 2.82 µM [inhibitor, partial curve]",
C=CCn1c(=O)c2c(nc3n2CCS3)n(C)c1=O,inactive,
O=C1OC2(CCCCC2)CC2=C1C1O[C@](c3ccsc3)(Cc3c1ccc1ccccc31)O2,"inconclusive: 4.47 µM [inhibitor, single point]",
COc1ccc(CCNC(=O)c2ccc([N+](=O)[O-])cc2)cc1,"inconclusive: 10 µM [inhibitor, partial curve, poor fit]",
CCOC(=O)C1=C(O)/C(=C/c2ccc(CNC(=O)C(=O)Nc3ccc(C)cc3)o2)N=C1C,"inconclusive: 28.2 µM [inhibitor, partial curve]",
Cc1cccc(S(=O)(=O)c2cn(Cc3ccccc3)c3cc(N4CCCCC4C)c(F)cc3c2=O)c1 (stereo not drawn),inactive,
CCOC(=O)c1c(NC(=O)c2cc(-c3ccc(OC)cc3)on2)sc(C)c1C,inactive,
O=C(c1ccc(OC2CCN(Cc3cccc(F)c3)CC2)cc1)N1CCCCC1,"inconclusive: 35.5 µM [inhibitor, single point]",
O=C(C[C@H]1C(=O)N(CCc2ccccc2)C[C@@H]1Cc1ccccc1)Nc1ccccc1,"inconclusive: 7.08 µM [inhibitor, single point]",

Structure (SMILES),Potency,"activity change, negative = inhibition"
CCCC(=O)N1CCN(c2ccc(NC(=S)NC(=O)c3cccc(C)c3)cc2)CC1,inactive,
Cc1ccc(OCC(=O)Nc2ccc(C(=O)OCc3cc(=O)n4c(C)csc4n3)cc2)cc1,inactive,
COc1ccc(N2C(=O)NC3CC2(C)Oc2ccc(Cl)cc23)cc1OC (stereo not drawn),inactive,
CC(OC(=O)CNC(=O)c1ccco1)C(=O)N(C)c1ccccc1 (stereo not drawn),inactive,
O=C(Nc1nc(-c2ccc(F)cc2)cs1)C1CCN(C(=O)c2ccc(F)cc2)CC1,"inconclusive: 31.6 µM [inhibitor, single point]",
O=c1[nH]cc(-c2ccccc2)c(=O)[nH]1,"inconclusive: 10 µM [inhibitor, partial curve, poor fit]",
O=c1c2c3c(sc2nc2n1CCCCC2)CCC3,"inconclusive: 31.6 µM [inhibitor, single point]",
Cn1c(=O)cc(SCC(=O)NCc2ccc(F)cc2)c2ccccc21,inactive,
CCc1cc2c(CN3CCN(CCO)CC3)cc(=O)oc2cc1O,"inconclusive: 25.1 µM [inhibitor, single point]",
CCC(C(=O)Nc1ccc(C(C)=O)cc1)n1c(C)c2cnn(-c3ccccc3)c(=O)c2c1C (stereo not drawn),inactive,
CC(C)=CCN1CCN(Cc2cn[nH]c2C2CCCCC2)CC1CCO (stereo not drawn),"inconclusive: 7.08 µM [inhibitor, single point]",
COc1ccccc1N1CCN(C(CNC(=O)C(=O)NCCc2ccccc2)c2cccnc2)CC1 (stereo not drawn),inactive,
CN1CC=C2C(C#N)=C(N)C(C#N)(C#N)[C@H](c3ccoc3)[C@H]2C1,,inconclusive: -31.4% [inhibitor]
CC1=C(C#N)C(=O)N(C2CCS(=O)(=O)C2)C(=O)/C1=C\c1ccco1 (stereo not drawn),"inconclusive: 15.8 µM [inhibitor, partial curve]",
COc1ccc(C)cc1N(CC(=O)N1CCOCC1)S(C)(=O)=O,"inconclusive: 25.1 µM [inhibitor, single point]",
COc1ccc(CNC(=O)C2CCN(S(=O)(=O)c3cccc4nonc34)CC2)cc1OC,inactive,
Cc1c(CCC(=O)N2CCC[C@H]2C(=O)O)c(=O)oc2c(C)c3oc4c(c3cc12)CCCC4,"inconclusive: 39.8 µM [inhibitor, single point]",
CC(C)c1nc(SCC(=O)NC2CCCC2)c2ccccc2n1,inactive,
COc1ccc(Cn2c(SC)nc3ccccc32)cc1[N+](=O)[O-],"inconclusive: 25.1 µM [inhibitor, single point]",
O=C(NN1C(=O)C2C(C1=O)C1C=CC2C12CC2)c1ccccc1Cl (stereo not drawn),"inconclusive: 7.08 µM [inhibitor, single point]",
O=C(N/N=C/c1ccc2cccc(OCc3ccccc3)c2n1)c1ccc(Br)cc1,"inconclusive: 25.1 µM [inhibitor, single point]",
